Source: ChEMBL document CHEMBL3988442, “University of Dundee, Small-Polar-MMV Screening Library” (2021).

By UniProt entry, the sequences of proteins in these tests, tags left out.
UniProt E9BF75, entry or part of it: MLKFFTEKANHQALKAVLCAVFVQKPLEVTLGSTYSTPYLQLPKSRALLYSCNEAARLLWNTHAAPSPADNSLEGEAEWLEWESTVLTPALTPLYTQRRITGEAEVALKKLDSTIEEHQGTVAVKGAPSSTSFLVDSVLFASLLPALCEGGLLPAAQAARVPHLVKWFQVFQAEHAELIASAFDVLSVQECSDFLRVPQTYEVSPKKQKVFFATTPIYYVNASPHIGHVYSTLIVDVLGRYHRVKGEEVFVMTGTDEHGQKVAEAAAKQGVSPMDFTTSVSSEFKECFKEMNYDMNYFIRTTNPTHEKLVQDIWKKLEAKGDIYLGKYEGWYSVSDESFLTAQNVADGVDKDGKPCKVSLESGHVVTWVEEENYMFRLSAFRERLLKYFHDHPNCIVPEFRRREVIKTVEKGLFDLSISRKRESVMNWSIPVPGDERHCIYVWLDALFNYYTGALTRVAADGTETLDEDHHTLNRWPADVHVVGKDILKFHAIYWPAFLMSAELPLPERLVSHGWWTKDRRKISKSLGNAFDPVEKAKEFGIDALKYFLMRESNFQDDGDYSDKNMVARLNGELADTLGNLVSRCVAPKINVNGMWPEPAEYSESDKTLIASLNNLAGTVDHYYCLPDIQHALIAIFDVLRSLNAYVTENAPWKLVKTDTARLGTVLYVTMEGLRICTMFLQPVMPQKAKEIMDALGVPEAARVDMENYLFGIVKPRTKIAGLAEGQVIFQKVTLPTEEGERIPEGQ

Results are percentages, as filed. The controls that fix the scale are not given in the record; negative values are as filed. Compounds were drawn at random from those tested, without regard to their results.

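Methionyl-tRNA synthetase (putative), Leishmania donovani (UniProt E9BF75). Primary screen of methionyl-tRNA synthetase; the read-out is not stated. The test concentration is not given. Values are per cent inhibition. Of about 68,000 compounds tested this way, about 24 (0.035%) reached 50% or more in at least one test.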

For Cc1csc2c(N3CCC(NCCCC4CCOC4)CC3)ncnc12 (centres unmarked) the result was 0%.
For COCCCNC(=O)Nc1ncc(-c2cccc(OC)c2)n1CCOC the result was 20.99%.
For Cc1cnc(C(=O)N2Cc3cc(Cl)ccc3OC3(CCOCC3)C2)cn1 the result was 18.01%.
For CNC(=O)CS(=O)(=O)C1CCN(S(=O)(=O)c2ccccc2Br)CC1 the result was 8.374%.
For Cc1ccc(F)cc1C(=O)N1C[C@@H](CN2CCOCC2)[C@@H](CO)C1 the result was 10.37%.
For Cc1noc(CNC(=O)c2ccccc2-n2cc(CN)cn2)n1 the result was 18.77%.
For COc1ccc(CNC(=O)c2ccc(=O)n(C)c2)cc1C the result was 11.56%.
For CCOc1cc(CN(C)CCC#N)ccc1OC(F)F the result was 6.267%.
For O=C(Cn1c(=O)n(Cc2ccco2)c2ncccc21)Nc1ccccn1 the result was 9.932%.
For COc1cccc(CN2CCC3(CC2)CCN(C(=O)[C@@H]2CCCO2)C3)c1 the result was 13.14%.
For CC(C)c1noc(CCC(=O)NC(C)c2nnc3n2CCC3)n1 (centres unmarked) the result was 4.982%.
For CC(C)c1nn(C)c(N2CCOCC2)c1CNCCC(=O)N(C)C the result was 8.728%.
For Cc1cccc(C(=O)N2CCn3cnc(COCC4CC4)c3C2)c1 the result was 14.18%.
For Cn1ccnc1CC1CCCN(C(=O)NCCOc2cccnc2)C1 (centres unmarked) the result was 18.8%.
For Cc1nc(N)nc(C)c1Cc1nc(C2CC2)n[nH]1 the result was 18.56%.
For COc1ccccc1C(=O)N1CCC(Nc2ccc(C)nn2)CC1 the result was 22.06%.
For CCOc1cccc(CN2CCCn3nc(CNS(C)(=O)=O)cc3C2)c1 the result was 10.44%.
For O=C(c1csnn1)N1CCc2ccccc21 the result was 6.529%.
For CC(=O)Nc1ccc(CNC(=O)CNCc2nnc(C)o2)cc1 the result was 14.8%.
For COc1cccc(C(C(=O)O)N2CCSCC2)c1F (centres unmarked) the result was 10.36%.
For Cc1noc(C)c1CN1CCOC2(CCCN(c3ccccn3)C2)C1 (centres unmarked) the result was 17.78%.
For CC(C)Cc1noc(CN(C)C[C@]2(O)CCCN3CCCC[C@@H]32)n1 the result was 7.035%.
For CC(C)=CCN1CC2(CCN(C(=O)CCn3ccnc3C)CC2)CC1=O the result was 18.05%.
For Cc1nc(NC(=O)C(C)S(C)(=O)=O)sc1Cc1ccccc1F (centres unmarked) the result was 13.14%.
For CN(C)C(=O)N1CCN(C(=O)c2ccn3ccnc3c2)CC1 the result was 1.12%.
For CCc1cnc(NCCS(=O)(=O)N(C)C)nc1 the result was 12.58%.
For Cc1nc(CN2CCC3(CCN(Cc4cnn(C)c4)CC3)C2=O)cs1 the result was -2.466%.
For NC(=O)C1CCN(CCCNC(=O)Nc2nncs2)CC1 the result was 9.288%.
For CCN1CCOCC12CCN(c1nccs1)CC2 the result was 7.843%.
For COCC(=O)N1CCc2ccc(=O)n(CC3CC3)c2CC1 the result was 16.48%.
For NC(=O)COc1cccc(C(=O)N2CCCC(n3ccnc3)C2)c1 (centres unmarked) the result was 9.206%.
For CSCc1ccc(N2CCC(C(O)Cc3ccccc3)CC2)nc1 (centres unmarked) the result was 2.93%.
For NC(=O)c1cc2c(nc1CCOc1ccc(F)cc1)CCC2 the result was 7.572%.
For CC(C)CN1C(=O)CC(N2CCN(c3ccc(F)cc3)CC2)C1=O (centres unmarked) the result was 6.232%.
For O=C(c1ccsc1)N1CCC(Nc2cccnn2)CC1 the result was 23.3%.
For Cc1nc2c(C)cccc2cc1C(=O)N1CCC2(CCN(C)CC2)C1 the result was 16.86%.
For Cc1csc(N2CCCN(C(=O)C(C(C)C)n3cncn3)CC2)n1 (centres unmarked) the result was 13.65%.
For Cc1cc(C)c2ncc(C#N)c(N3CCS(=O)(=O)CC3)c2c1 the result was 17.47%.
For CCc1nnc2n1CCN(C(=O)C1CCC(n3cccc3)CC1)C2 (centres unmarked) the result was 2.801%.
For Cc1cnn(CCNCc2ccc(OCc3ccccn3)cc2)c1 the result was 3.183%.
For O=C(O)CNc1cc(-c2nccnc2N2CCCC2)c2cc[nH]c2n1 the result was 22.64%.
For Cc1nnc(CN2CCCC2c2cccc(Br)c2)o1 (centres unmarked) the result was 22.16%.
For CC(C)CS(=O)(=O)N1C[C@H]2C[C@H](C(=O)N(C)C)[C@@H](C1)O2 the result was 9.29%.
For COC(=O)c1ccc(N2CCN(C(=O)c3cnccn3)C(C)C2)cc1 (centres unmarked) the result was 24.58%.
For CCOCC1CN(C(=O)c2cscn2)Cc2nnn(CC3CC3)c21 (centres unmarked) the result was 4.377%.
For CCNC(=O)NC(=O)CNc1cc(C(=O)OC)cc(C(F)(F)F)c1 the result was 13.4%.
For CC(=O)N1CCCN(C(=O)NCCc2cc(Cl)cc(Cl)c2)CC1 the result was 8.333%.
For Cc1nccc([C@H]2C[C@@H]3CCN(S(C)(=O)=O)C[C@H]3O2)n1 the result was 16.75%.
For N#Cc1cnc(NC2CCN(C(=O)C3CCCCC3)CC2)c(Cl)c1 the result was 8.437%.

For reference, 5 entries once more:

{"structure": "O=C(Cn1c(=O)n(Cc2ccco2)c2ncccc21)Nc1ccccn1", "Inhibition": 9.932}
{"structure": "COCCCNC(=O)Nc1ncc(-c2cccc(OC)c2)n1CCOC", "Inhibition": 20.99}
{"structure": "CC(C)Cc1noc(CN(C)C[C@]2(O)CCCN3CCCC[C@@H]32)n1", "Inhibition": 7.035}
{"structure": "Cc1cnc(C(=O)N2Cc3cc(Cl)ccc3OC3(CCOCC3)C2)cn1", "Inhibition": 18.01}
{"structure": "CC(C)c1noc(CCC(=O)NC(C)c2nnc3n2CCC3)n1", "stereo": "centres unmarked", "Inhibition": 4.982}